Source: PMC10290833
Results are given in words; binding and its absence hold for the method and conditions named. Binding seen in cells or lysates may run through a third protein. Some entries that bind do so weakly or less than the wild type.

Sequences of proteins named here, by UniProt entry; tags and fusion partners are left off. Residues count along the entry.
UniProt P36941, residues 31-435: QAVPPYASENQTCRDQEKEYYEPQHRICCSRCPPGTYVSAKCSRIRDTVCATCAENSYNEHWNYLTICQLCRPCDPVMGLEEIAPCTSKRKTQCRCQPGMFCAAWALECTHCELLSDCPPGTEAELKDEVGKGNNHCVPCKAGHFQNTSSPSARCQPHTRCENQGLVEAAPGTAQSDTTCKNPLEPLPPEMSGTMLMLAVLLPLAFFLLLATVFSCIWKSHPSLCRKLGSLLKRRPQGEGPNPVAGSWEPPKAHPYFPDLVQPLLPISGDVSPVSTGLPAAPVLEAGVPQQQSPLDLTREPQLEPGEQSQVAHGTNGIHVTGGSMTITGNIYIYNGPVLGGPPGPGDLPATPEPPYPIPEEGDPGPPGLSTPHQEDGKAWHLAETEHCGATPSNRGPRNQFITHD
UniProt O00463: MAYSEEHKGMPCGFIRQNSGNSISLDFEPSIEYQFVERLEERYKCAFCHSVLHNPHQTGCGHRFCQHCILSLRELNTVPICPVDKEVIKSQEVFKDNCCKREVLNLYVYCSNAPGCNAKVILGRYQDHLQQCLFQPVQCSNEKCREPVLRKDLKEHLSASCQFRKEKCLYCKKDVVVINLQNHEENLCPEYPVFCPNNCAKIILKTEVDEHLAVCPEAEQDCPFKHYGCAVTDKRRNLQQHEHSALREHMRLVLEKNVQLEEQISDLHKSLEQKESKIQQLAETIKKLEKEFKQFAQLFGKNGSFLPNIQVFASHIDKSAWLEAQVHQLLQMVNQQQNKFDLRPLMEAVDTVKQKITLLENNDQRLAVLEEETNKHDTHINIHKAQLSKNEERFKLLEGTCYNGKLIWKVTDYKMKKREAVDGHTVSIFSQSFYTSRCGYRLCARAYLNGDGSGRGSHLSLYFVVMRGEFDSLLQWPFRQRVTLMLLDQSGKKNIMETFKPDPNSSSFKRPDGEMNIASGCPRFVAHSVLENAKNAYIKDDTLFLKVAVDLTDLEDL

Target: lymphotoxin beta receptor (human (endogenous in HEK293T)) (UniProt P36941)
Experiment: co-IP; HEK293T lysate (Pierce IP Lysis Buffer) incubated with anti-TRAF5, anti-LTBR or anti-IgG (negative control) and Dynabeads Protein G at 25 °C overnight; precipitate analysed by western blot

TNF receptor-associated factor 5 (from UniProt O00463 1-557)
binding: binds
